{"source": "PubChem BioAssay AID504744 (Drosophila RNAi Screening Center, 2011)", "purpose": "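Identify dsRNAs that increase or decrease phospho-dAkt after insulin treatment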 (primary screen)", "cells": "Drosophila Kc167 cells", "reagent": "long dsRNA against Drosophila genes, 250 ng dsRNA per well of a 384-well plate", "time to read-out": "3 days of knock-down, then overnight serum-free starvation before stimulation", "treatment": "bovine insulin at 387 nM for 10 minutes after 12 h without serum", "detection": "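Per-well phospho-dAkt level from an in-cell fluorescent antibody stain, divided by a DNA-dye signal; log2 residuals turned into z-scores that take cell number into account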", "rule for the call": "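Under insulin, a gene counts as a hit if the average z-score of two replicates lies above 2.5 or below -2.5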", "note": "The deposit covers about 23,000 reagents; shown is an unselected part of those that have a named target and a result. Of all reagents, 98 (0.43%) were called active. 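Only hit calls are given; the phospho-dAkt signals, z-scores and hit direction were not deposited.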 Reagents against one gene are numbered here. Names joined by + are all predicted targets of the reagent."}
{"Target gene":"CG9568","reagent":1,"Call":"inactive"}
{"Target gene":"CG9389","reagent":1,"Call":"inactive"}
{"Target gene":"GstD4","reagent":1,"Call":"inactive"}
{"Target gene":"Cpr72Ea","reagent":1,"Call":"inactive"}
{"Target gene":"CG31776","reagent":1,"Call":"inactive"}
{"Target gene":"AIF","reagent":1,"Call":"inactive"}
{"Target gene":"CG33502 + CG32857 + CG32500","reagent":1,"Call":"inactive"}
{"Target gene":"CG33502 + CG32857 + CG32500","reagent":2,"Call":"inactive"}
{"Target gene":"CG2065","reagent":1,"Call":"inactive"}
{"Target gene":"CG2065","reagent":2,"Call":"inactive"}
{"Target gene":"Zcchc7","reagent":1,"Call":"inactive"}
{"Target gene":"CG6933","reagent":1,"Call":"inactive"}
{"Target gene":"CG40198","reagent":1,"Call":"inactive"}
{"Target gene":"Osi12","reagent":1,"Call":"inactive"}
{"Target gene":"twin","reagent":1,"Call":"inactive"}
{"Target gene":"twin","reagent":2,"Call":"inactive"}
{"Target gene":"twin","reagent":3,"Call":"inactive"}
{"Target gene":"Lcp65Af","reagent":1,"Call":"inactive"}
{"Target gene":"CG4653","reagent":1,"Call":"inactive"}
{"Target gene":"CG4653","reagent":2,"Call":"inactive"}
{"Target gene":"TpnC4","reagent":1,"Call":"inactive"}
{"Target gene":"TwdlK","reagent":1,"Call":"inactive"}
{"Target gene":"Taf5","reagent":1,"Call":"inactive"}
{"Target gene":"aft","reagent":1,"Call":"inactive"}
{"Target gene":"CG14246","reagent":1,"Call":"inactive"}
{"Target gene":"CG33639","reagent":1,"Call":"inactive"}
{"Target gene":"CG33639","reagent":2,"Call":"inactive"}
{"Target gene":"CG8312","reagent":1,"Call":"inactive"}
{"Target gene":"CG11723","reagent":1,"Call":"inactive"}
{"Target gene":"CG31636","reagent":1,"Call":"inactive"}
{"Target gene":"mag","reagent":1,"Call":"inactive"}
{"Target gene":"RN-tre","reagent":1,"Call":"inactive"}
{"Target gene":"Acbp6","reagent":1,"Call":"inactive"}
{"Target gene":"CG17681","reagent":1,"Call":"inactive"}
{"Target gene":"Est-Q","reagent":1,"Call":"inactive"}
{"Target gene":"DIP-beta","reagent":1,"Call":"inactive"}
{"Target gene":"DIP-beta","reagent":2,"Call":"inactive"}
{"Target gene":"DIP-beta","reagent":3,"Call":"inactive"}
{"Target gene":"DIP-beta","reagent":4,"Call":"inactive"}
{"Target gene":"CG13458","reagent":1,"Call":"inactive"}
{"Target gene":"CG30339","reagent":1,"Call":"inactive"}
{"Target gene":"CG11560","reagent":1,"Call":"inactive"}
{"Target gene":"CG10597","reagent":1,"Call":"inactive"}
{"Target gene":"Nplp2","reagent":1,"Call":"inactive"}
{"Target gene":"CG31206","reagent":1,"Call":"inactive"}
{"Target gene":"Art7","reagent":1,"Call":"inactive"}
{"Target gene":"Sras","reagent":1,"Call":"inactive"}
{"Target gene":"CG13313","reagent":1,"Call":"inactive"}
{"Target gene":"TMEM216","reagent":1,"Call":"inactive"}
{"Target gene":"Obp57c","reagent":1,"Call":"inactive"}
{"Target gene":"CG18213","reagent":1,"Call":"inactive"}
{"Target gene":"RpL12","reagent":1,"Call":"inactive"}
{"Target gene":"Cpr","reagent":1,"Call":"inactive"}
{"Target gene":"CG30095","reagent":1,"Call":"inactive"}
{"Target gene":"CG8064","reagent":1,"Call":"inactive"}
{"Target gene":"nan","reagent":1,"Call":"inactive"}
{"Target gene":"Or43b","reagent":1,"Call":"inactive"}

Part of the list above in another layout.
Target gene,reagent,Call
Acbp6,1,inactive
CG17681,1,inactive
Est-Q,1,inactive
DIP-beta,1,inactive
DIP-beta,2,inactive
DIP-beta,3,inactive
